Laboratory results as given in article PMC11978164.
These are yes or no findings as the source states them, for the method shown. Binding seen in cells or lysates may run through a third protein. These calls come from enrichment with a bait or labelling near it, and not all partners need be listed.

By UniProt entry, the sequences of proteins in these tests, tags left out.
UniProt Q13263: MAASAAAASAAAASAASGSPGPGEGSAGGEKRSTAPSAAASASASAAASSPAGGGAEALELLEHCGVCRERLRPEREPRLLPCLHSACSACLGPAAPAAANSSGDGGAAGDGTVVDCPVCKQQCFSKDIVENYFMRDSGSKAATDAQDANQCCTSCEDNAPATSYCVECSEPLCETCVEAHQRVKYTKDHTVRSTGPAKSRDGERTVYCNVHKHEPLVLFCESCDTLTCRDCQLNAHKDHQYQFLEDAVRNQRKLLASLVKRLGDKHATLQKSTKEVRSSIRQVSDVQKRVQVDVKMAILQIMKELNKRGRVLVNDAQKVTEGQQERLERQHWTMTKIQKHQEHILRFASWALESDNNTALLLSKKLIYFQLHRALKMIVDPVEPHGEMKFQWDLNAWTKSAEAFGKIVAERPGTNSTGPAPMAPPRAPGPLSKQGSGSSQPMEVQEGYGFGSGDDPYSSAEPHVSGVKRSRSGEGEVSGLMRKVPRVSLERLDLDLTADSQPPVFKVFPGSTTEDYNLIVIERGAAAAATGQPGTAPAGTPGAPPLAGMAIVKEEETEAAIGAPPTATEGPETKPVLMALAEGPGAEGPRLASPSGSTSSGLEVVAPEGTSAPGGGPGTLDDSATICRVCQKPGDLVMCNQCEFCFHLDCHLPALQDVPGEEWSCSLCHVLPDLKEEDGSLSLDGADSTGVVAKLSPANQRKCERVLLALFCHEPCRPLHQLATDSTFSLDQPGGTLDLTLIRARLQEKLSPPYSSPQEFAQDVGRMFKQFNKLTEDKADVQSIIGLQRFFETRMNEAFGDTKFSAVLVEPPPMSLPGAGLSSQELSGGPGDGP
UniProt P63104: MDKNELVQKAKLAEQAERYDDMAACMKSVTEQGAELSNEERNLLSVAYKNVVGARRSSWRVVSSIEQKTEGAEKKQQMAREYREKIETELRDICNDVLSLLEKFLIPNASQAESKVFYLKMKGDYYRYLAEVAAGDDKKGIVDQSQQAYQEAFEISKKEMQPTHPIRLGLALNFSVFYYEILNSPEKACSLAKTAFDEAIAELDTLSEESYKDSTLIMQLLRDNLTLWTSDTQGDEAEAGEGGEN

Target: TRIM28 (human (endogenous in ARP1, RPMI 8226, U266)) (UniProt Q13263)
Assay: affinity purification with mass spectrometry; IP/MS with anti-TRIM28 antibody in ARP1 cells; precipitate stained with Coomassie brilliant blue

binding: binds
Substance: 14-3-3ζ (from UniProt P63104 1-245)
